The target of the assay is T1, GxcM-RFP (Dictyostelium discoideum) (UniProt Q1ZXN6).
T1 sequence: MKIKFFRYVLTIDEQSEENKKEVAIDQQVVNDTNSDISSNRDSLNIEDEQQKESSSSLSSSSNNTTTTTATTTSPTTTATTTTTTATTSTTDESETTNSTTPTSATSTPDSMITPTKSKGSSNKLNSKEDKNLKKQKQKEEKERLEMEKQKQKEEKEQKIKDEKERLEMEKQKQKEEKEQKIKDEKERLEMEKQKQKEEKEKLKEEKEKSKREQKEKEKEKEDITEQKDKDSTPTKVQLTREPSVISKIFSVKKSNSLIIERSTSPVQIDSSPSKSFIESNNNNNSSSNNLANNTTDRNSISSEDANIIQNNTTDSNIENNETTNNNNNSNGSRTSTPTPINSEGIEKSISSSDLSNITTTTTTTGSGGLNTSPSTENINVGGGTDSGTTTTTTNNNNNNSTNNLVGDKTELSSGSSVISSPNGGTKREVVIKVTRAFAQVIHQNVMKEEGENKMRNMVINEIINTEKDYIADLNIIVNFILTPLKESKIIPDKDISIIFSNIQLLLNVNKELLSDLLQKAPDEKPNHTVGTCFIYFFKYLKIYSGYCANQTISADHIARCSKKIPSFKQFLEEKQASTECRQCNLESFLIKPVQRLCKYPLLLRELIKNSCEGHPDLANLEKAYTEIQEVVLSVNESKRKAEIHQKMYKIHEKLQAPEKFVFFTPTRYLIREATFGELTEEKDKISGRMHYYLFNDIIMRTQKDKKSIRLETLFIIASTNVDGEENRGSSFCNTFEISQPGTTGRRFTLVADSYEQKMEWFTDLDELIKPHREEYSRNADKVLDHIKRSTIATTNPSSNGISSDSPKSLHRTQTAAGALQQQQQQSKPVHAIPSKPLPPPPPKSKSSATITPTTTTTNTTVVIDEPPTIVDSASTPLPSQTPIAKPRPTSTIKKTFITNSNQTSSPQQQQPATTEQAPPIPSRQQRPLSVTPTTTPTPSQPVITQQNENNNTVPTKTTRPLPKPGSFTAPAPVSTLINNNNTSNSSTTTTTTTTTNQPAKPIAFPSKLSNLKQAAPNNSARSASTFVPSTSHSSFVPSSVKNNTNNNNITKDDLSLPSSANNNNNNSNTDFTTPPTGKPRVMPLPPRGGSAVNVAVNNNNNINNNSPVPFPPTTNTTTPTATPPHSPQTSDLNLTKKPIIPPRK
The assay is described as follows: co-IP.

Sequences of proteins named here, by UniProt entry; tags and fusion partners are left off.
UniProt P34149: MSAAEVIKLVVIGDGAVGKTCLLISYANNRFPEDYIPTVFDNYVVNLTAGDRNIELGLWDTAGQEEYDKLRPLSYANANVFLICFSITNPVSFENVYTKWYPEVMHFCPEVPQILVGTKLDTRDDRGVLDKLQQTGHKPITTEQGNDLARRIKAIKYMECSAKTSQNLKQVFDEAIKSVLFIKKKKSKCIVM

Results are given in words; binding and its absence hold for the method and conditions named. In cells and extracts the contact can be indirect. Some binding calls cover weakened binding; strength is not graded here.

On to GFP-Rac1A (from UniProt P34144 1-194), for which the binding result was “no binding”.
For GFP-RacC (from UniProt P34149 1-192), the binding entry is reported as “binds”.
